Measurements published in PubChem BioAssay AID2685 (National Center for Advancing Translational Sciences (NCATS), 2010).
The list shows a part of the results. The main result of the screen is listed elsewhere. These columns were measured beside it and carry no call. The list favours compounds with an active or inconclusive main result. The note in brackets gives the kind of curve behind each potency; many fits are weak.

Assay: qHTS Assay for Lipid Storage Modulators in Drosophila S3 Cells;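 on cell number change: cells counted by Cell Tracker Red CMTPX staining in the red channel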
Details: BODIPY lipid droplet fluorescence, 18-24 h; for cell number change: measured here: cell count max response, cells fed with added oleic acid
Summary of the method: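 Drosophila S3 cells got compounds at several concentrations plus oleic acid (400 uM solution). Laser-scanning cytometry with 488 nm excitation read lipid droplets at 500-530 nm and cells at 575-640 nm. Percent activity was relative to 20 uM Triacsin C.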

[1] = measured here: lipid fluorescence (Fed channel) AC50, cells fed with added oleic acid
[2] = measured here: cell number channel AC50, cells fed with added oleic acid

O=C(Nc1ccc(N2CCOCC2)cc1)c1cccc(S(=O)(=O)N2CCCC2)c1
cell number change: -13.3% | AC50 [1]: 0.164 µM [falling, full curve, poor fit]

O=c1[nH][nH]c(-c2ccccc2O)c1C(C[N+](=O)[O-])c1ccc(Br)cc1 (configuration not stated)
cell number change: -20.7% | AC50 [1]: 29.1 µM [falling, single point]

O=C(NC1CCCCC1)C1CC(O)CN1C(=O)OCc1ccccc1 (configuration not stated)
cell number change: 12.8% | AC50 [1]: 2.91 µM [rising, partial curve, poor fit]

Nc1ccccc1Nc1ccncc1[N+](=O)[O-]
cell number change: 1.06%

Cc1onc(-c2c(F)cccc2Cl)c1C(=O)Nc1nccs1
cell number change: 25.9% | AC50 [2]: 6.51 µM [rising, partial curve, poor fit] | AC50 [1]: 6.51 µM [rising, partial curve, poor fit]

O=C(NS(=O)(=O)c1ccccc1)c1ccccc1O
cell number change: -72.3% | AC50 [2]: 29.1 µM [falling, single point]

Cc1cnc(NC(=O)CSc2nnc(N)s2)s1
cell number change: -0.605% | AC50 [1]: 29.1 µM [falling, single point]

COc1cccc(N2CC(C(=O)Nc3nnc(SCCC4OCCO4)s3)CC2=O)c1 (configuration not stated)
cell number change: -17.6% | AC50 [1]: 29.1 µM [rising, single point]

Cc1cccc(OCC(=O)NCC(=O)N/N=C/c2cccs2)c1
cell number change: -7.89% | AC50 [1]: 0.291 µM [falling, partial curve, poor fit]

Cc1ccc(C)c(S(=O)(=O)NC2CCS(=O)(=O)C2)c1 (configuration not stated)
cell number change: -14.3% | AC50 [1]: 0.116 µM [rising, full curve, poor fit]

COc1ccc(OC)c(N(CC(=O)Nc2ccccc2)S(C)(=O)=O)c1
cell number change: 2.28% | AC50 [1]: 29.1 µM [rising, single point]

N#C/C(=C(\O)c1cc(Cl)sc1Cl)c1nc2ccccc2[nH]1
cell number change: -7.76%

CN(c1ccccc1)S(=O)(=O)c1ccc(NC(=O)c2ccco2)cc1
cell number change: 13.4% | AC50 [2]: 0.092 µM [rising, full curve, poor fit]

Cn1c(=O)c2c(nc(NCC3CCCC(CN)C3)n2Cc2ccc(Cl)cc2Cl)n(C)c1=O (configuration not stated)
cell number change: -9.72%

CN(C)C(=O)Nc1ccc(F)cc1F
cell number change: -37.3% | AC50 [2]: 0.146 µM [falling, full curve] | AC50 [1]: 0.82 µM [falling, full curve]

Cc1cccc(NS(=O)(=O)c2ccc(C(=O)N3CCCC3)cc2)c1C
cell number change: 22.7% | AC50 [2]: 1.64 µM [rising, full curve, poor fit] | AC50 [1]: 1.64 µM [rising, full curve]

CCC(C)(C)NC(=O)C(c1cccn1C)N(Cc1ccc(C)cc1)C(=O)Cn1nnc2ccccc21 (configuration not stated)
cell number change: 2.58%

CSc1nnc(-c2ccco2)n1-c1ccccc1
cell number change: -8.3%

CC(OC(=O)CCCN=C1NS(=O)(=O)c2ccccc21)C(=O)c1ccccc1 (configuration not stated)
cell number change: -21.2% | AC50 [1]: 29.1 µM [falling, single point]

C#Cc1cccc(C(=O)N2CCCC(C(=O)c3ccc(OC)cc3C)C2)c1 (configuration not stated)
AC50 [1]: 2.31 µM [falling, partial curve]

C#CCOc1ccc(Br)cc1C(c1c(C)[nH][nH]c1=O)c1c(C)[nH][nH]c1=O
cell number change: -22.3%

COc1ccc(CC(=O)Nc2cccc(-c3ccc4nncn4n3)c2)cc1OC
cell number change: -38.2% | AC50 [2]: 4.11 µM [falling, partial curve] | AC50 [1]: 0.116 µM [falling, full curve, poor fit]

CCOC(=O)C1CCN(c2cc(C)nc3cc(-c4cccc(F)c4)nn23)CC1
cell number change: 91.3% | AC50 [2]: 0.517 µM [rising, single point] | AC50 [1]: 0.731 µM [rising, single point]

COc1ccc(-c2cn(-c3ccc(C)c(C)c3)c(=S)[nH]2)cc1OC
cell number change: -27.3% | AC50 [1]: 20.6 µM [falling, single point]

COC(=O)c1cc2oc(C)cc2n1CC(=O)Nc1ccc(OC)c(OC)c1OC
cell number change: 24.9% | AC50 [1]: 29.1 µM [rising, single point]

CCOC(=O)CCNC(=O)N1CCCC(C(=O)c2cccc(OC(C)C)c2)C1 (configuration not stated)
cell number change: 9.33% | AC50 [1]: 29.1 µM [falling, single point]

O=C(CNC(=O)c1ccccc1Br)NNC(=O)c1cccs1
cell number change: -6.5%

CC1CCN(Cc2nnnn2CCCC(=O)N(C)C2CCOC2)CC1 (configuration not stated)
cell number change: 13.1%

COc1ccc(OC)c(Nc2nc(NCc3ccco3)c3ccccc3n2)c1
cell number change: -31.4% | AC50 [2]: 18.4 µM [falling, single point] | AC50 [1]: 29.1 µM [falling, single point]

Cc1ccc(Cl)cc1NC(=S)N(Cc1ccccc1)Cc1cccnc1
cell number change: 58.3% | AC50 [2]: 9.2 µM [rising, partial curve] | AC50 [1]: 13 µM [rising, partial curve, poor fit]

N#C/C(=C(/O)COc1cccc2ccccc12)c1nc2ccccc2[nH]1
cell number change: 94.2% | AC50 [2]: 20.6 µM [rising, single point] | AC50 [1]: 0.651 µM [rising, full curve]

Cc1ccc(CN2CCN(CC(=O)NCc3ccc(Cl)cc3)C2=O)cc1
cell number change: -21.7% | AC50 [1]: 18.4 µM [falling, partial curve, poor fit]

S=C(Nc1ccc(Cl)cc1)c1sc(N2CCCCC2)nc1N1CCOCC1
cell number change: 8.13% | AC50 [1]: 1.64 µM [rising, single point]

Cc1nc(NC(=O)c2ccccc2)sc1-c1csc(Nc2cccc(Cl)c2)n1
cell number change: -67% | AC50 [2]: 14.6 µM [falling, partial curve] | AC50 [1]: 9.2 µM [falling, partial curve]

COc1ccc(N=C2NN=C(c3c(C)[nH]c4ccccc34)CS2)cc1
cell number change: -8.48%

CCN(CCNC(=O)Nc1ccc(Cl)cc1)c1ccccc1
cell number change: 46.2% | AC50 [2]: 10.3 µM [rising, partial curve]

COc1ccc(CNC(=O)/C=C/c2ccc(S(=O)(=O)NCc3ccco3)cc2)cc1OC
cell number change: -1.27% | AC50 [1]: 20.6 µM [falling, single point]

Cc1ccc(S(=O)(=O)N2CC3(C)CN(S(=O)(=O)c4ccc(C)cc4)CC(C)(C2)C3)cc1
cell number change: -34% | AC50 [2]: 7.31 µM [falling, partial curve, poor fit] | AC50 [1]: 0.103 µM [falling, full curve]

COc1ccc2c(c1OC)C(=O)N(c1cccc(C(F)(F)F)c1)C2
cell number change: 17.7% | AC50 [1]: 2.59 µM [rising, partial curve]

O=C(C1CCCO1)N1CCC(O)(c2ccccc2)CC1 (configuration not stated)
cell number change: -11.4%

CCOc1ccccc1C(=O)N(CCC(=O)OC)c1ccccn1
AC50 [1]: 18.4 µM [falling, partial curve]

CCN1C(=O)C2C(C1=O)N1C(c3ccccc3)C3C(=O)N(CC)C(=O)C3N1C2c1ccccc1 (configuration not stated)
cell number change: -11.1% | AC50 [1]: 4.11 µM [falling, single point]

CCN(C1CCCCC1)S(=O)(=O)c1ccc(S(=O)(=O)NCc2ccncc2)cc1
cell number change: 0.575% | AC50 [1]: 29.1 µM [falling, single point]

CC1CC(C)(C)NC(=S)S1 (configuration not stated)
AC50 [2]: 2.06 µM [rising, partial curve]

CC1CCN(C(=O)CN2c3cccc4cccc(c34)S2(=O)=O)CC1
cell number change: 32.9% | AC50 [2]: 11.6 µM [rising, partial curve, poor fit] | AC50 [1]: 8.2 µM [rising, partial curve, poor fit]

Fc1ccccc1Nc1nc2ccccc2n2nnnc12
cell number change: 3.93% | AC50 [1]: 9.2 µM [rising, partial curve]

COC(=O)c1c(F)c(F)c(N2CCOCC2)c(F)c1F
cell number change: -9.77% | AC50 [1]: 0.0206 µM [falling, full curve, poor fit]

CCOc1cc(C(c2c(C)[nH][nH]c2=O)c2c(C)[nH][nH]c2=O)ccc1OCc1ccc([N+](=O)[O-])cc1
cell number change: 20.5%

CCOc1cc(/C=C2/C(=N)N3C=CSC3=NC2=O)ccc1OCCCOc1ccccc1C
cell number change: -28.7%

CC(OC(=O)c1nsc(Cl)c1Cl)C(=O)NCCc1ccccc1 (configuration not stated)
cell number change: 11.5%

O=C(COC(=O)c1cncc(Br)c1)NC1CCCCC1
cell number change: -22% | AC50 [1]: 6.51 µM [falling, partial curve, poor fit]

CS(=O)(=O)NCC(c1cccnc1)N1CCN(c2ccccc2F)CC1 (configuration not stated)
cell number change: 10.8% | AC50 [1]: 23.1 µM [rising, partial curve, poor fit]

CCN(CC)CCn1c(NCc2cccc(OC)c2OC)nc2ccccc21
cell number change: 8.8% | AC50 [1]: 10.3 µM [rising, partial curve, poor fit]

COc1c2ccoc2c(OC(C)=O)c2oc(C)cc(=O)c12
cell number change: -43.1% | AC50 [2]: 1.64 µM [falling, partial curve] | AC50 [1]: 0.58 µM [rising, single point]

COc1ccc(-c2cc(-c3ccccc3)c(C#N)c(S(C)(=O)=O)n2)cc1
AC50 [2]: 6.51 µM [rising, single point]

CCOc1ccccc1NC(=O)NCc1ccc2c(c1)OCO2
cell number change: 49.3%

Cc1ccc(-c2nc3ncccc3o2)cc1NC(=O)CC(C)C
cell number change: -16.7% | AC50 [1]: 1.46 µM [falling, full curve, poor fit]

Cc1ccc(SCC(=O)NCc2cccnc2)cc1
cell number change: 60.2% | AC50 [2]: 13 µM [rising, partial curve, poor fit] | AC50 [1]: 6.51 µM [rising, single point]

CC(C)CC(=O)c1c[nH]c(C(=O)NCc2ccc(F)cc2)c1
AC50 [1]: 1.16 µM [rising, full curve, poor fit]

CC1CN(C(=O)CS(=O)(=O)Cc2ccc(Cl)cc2)CC(C)O1 (configuration not stated)
cell number change: -16.6% | AC50 [1]: 0.398 µM [falling, full curve, poor fit]

CC1CC(C)CN(S(=O)(=O)c2ccc(NC(=O)C3CC(=O)N(Cc4ccccc4)C3)cc2)C1 (configuration not stated)
cell number change: 32.5% | AC50 [2]: 29.1 µM [rising, single point] | AC50 [1]: 29.1 µM [falling, single point]
